2 molecules from publication PMC9512921 can be followed below.

Test [1] addresses T1, p66Shc (66 kDa isoform of ShcA), endogenous (mouse (endogenous in mouse liver and AML12)) (UniProt P98083).
T1 sequence: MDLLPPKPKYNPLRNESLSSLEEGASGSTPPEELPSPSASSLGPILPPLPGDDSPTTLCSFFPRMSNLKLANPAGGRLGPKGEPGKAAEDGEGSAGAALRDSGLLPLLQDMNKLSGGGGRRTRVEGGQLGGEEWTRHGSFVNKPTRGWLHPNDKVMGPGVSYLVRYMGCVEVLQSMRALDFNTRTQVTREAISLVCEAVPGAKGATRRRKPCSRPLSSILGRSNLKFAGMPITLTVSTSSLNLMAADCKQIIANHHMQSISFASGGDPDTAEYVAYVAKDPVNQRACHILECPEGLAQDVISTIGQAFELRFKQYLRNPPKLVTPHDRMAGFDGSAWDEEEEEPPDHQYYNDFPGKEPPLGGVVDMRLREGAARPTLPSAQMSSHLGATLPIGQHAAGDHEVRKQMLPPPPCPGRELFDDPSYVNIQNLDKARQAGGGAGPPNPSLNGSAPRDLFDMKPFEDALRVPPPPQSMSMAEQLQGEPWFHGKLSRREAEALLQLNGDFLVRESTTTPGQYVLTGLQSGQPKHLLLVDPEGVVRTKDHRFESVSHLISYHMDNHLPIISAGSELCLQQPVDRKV
Nature of the test: co-IP; endogenous proteins from AML12 cells (exposed to H/R); antibody on Protein A/G magnetic beads, room temperature 1 h; western blot.

Test [2] has as its target T1, p66Shc (66 kDa isoform of ShcA), endogenous (mouse (endogenous in mouse liver and AML12)). Nature of the test: co-IP; endogenous proteins from livers of mice (also exposed to I/R); antibody on Protein A/G magnetic beads, room temperature 1 h; western blot.
Test [3] concerns the target T2, Flag-USP15 WT (UniProt Q9Y4E8).
T2 sequence: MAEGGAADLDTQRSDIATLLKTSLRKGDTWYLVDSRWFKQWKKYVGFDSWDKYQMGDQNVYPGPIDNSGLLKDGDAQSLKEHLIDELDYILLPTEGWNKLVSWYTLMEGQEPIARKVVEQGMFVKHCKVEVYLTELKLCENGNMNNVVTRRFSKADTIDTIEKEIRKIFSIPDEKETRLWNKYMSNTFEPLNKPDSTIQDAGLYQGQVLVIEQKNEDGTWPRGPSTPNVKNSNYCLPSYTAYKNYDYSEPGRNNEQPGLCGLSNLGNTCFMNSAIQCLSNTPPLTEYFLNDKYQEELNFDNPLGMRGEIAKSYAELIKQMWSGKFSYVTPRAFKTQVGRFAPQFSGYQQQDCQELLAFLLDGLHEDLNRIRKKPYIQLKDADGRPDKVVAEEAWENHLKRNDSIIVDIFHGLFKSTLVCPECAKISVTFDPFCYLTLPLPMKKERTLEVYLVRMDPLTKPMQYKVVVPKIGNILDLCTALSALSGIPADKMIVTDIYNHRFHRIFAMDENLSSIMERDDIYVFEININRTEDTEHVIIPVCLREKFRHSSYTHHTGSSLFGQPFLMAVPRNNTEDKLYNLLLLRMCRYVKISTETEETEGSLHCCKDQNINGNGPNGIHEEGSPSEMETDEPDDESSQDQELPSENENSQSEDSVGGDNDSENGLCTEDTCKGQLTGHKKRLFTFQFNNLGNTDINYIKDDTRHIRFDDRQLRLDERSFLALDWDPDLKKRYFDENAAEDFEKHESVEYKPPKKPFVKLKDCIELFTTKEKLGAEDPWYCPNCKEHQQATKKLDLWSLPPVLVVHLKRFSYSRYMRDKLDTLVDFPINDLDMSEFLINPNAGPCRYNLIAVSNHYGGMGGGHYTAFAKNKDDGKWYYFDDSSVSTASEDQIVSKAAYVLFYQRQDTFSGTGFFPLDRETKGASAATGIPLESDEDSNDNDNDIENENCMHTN
Nature of the test: co-IP; HEK293 cells co-transfected with Myc-p66Shc (or its mutants) and Flag-USP15 (WT or C269A); IP with anti-Flag or anti-Myc antibody; western blot. (In general: In western blotting, separated proteins are transferred to a membrane and probed.)

Test [4] concerns the target T3, Flag-USP15 C269A (UniProt Q9Y4E8).
T3 sequence: T2 sequence with C269A
Described as above.

Positions count from the first letter of the chain named. Results are given in words; binding and its absence hold for the method and conditions named. In cells and extracts the contact can be indirect. Some results given as binding are weak or reduced against the parent protein; the word gives no strength. For some of these results: Tags and fused reporters may be left off the sequences shown.

B1: ubiquitin-specific protease 15 (USP15), endogenous (enzyme, UniProt Q8R5H1 1-981)
chain: MAEGGAADLDTQRSDIATLLKTSLRKGDTWYLVDSRWFKQWKKYVGFDSWDKYQMGDQNVYPGPIDNSGLLKDGDAQSLKEHLIDELDYILLPTEGWNKLVSWYTLMEGQEPIARKVVEQGMFVKHCKVEVYLTELKLCENGNMNNVVTRRFSKADTIDTIEKEIRKIFNIPDEKEARLWNKYMSNTFEPLNKPDSTIQDAGLYQGQVLVIEQKNEDGTWPRGPSTPKSPGASNFSTLPKISPSSLSNNYNNINNRNVKNSNYCLPSYTAYKNYDYSEPGRNNEQPGLCGLSNLGNTCFMNSAIQCLSNTPPLTEYFLNDKYQEELNFDNPLGMRGEIAKSYAELIKQMWSGKFSYVTPRAFKTQVGRFAPQFSGYQQQDCQELLAFLLDGLHEDLNRIRKKPYIQLKDADGRPDKVVAEEAWENHLKRNDSIIVDIFHGLFKSTLVCPECAKISVTFDPFCYLTLPLPMKKERSLEVYLVRMDPLAKPMQYKVIVPKIGNILDLCTALSALSGVPADKMIVTDIYNHRFHRIFAVDENLSSIMERDDIYVFEININRAEDTEHVVIPVCLREKFRHSSYTHHTGSSLFGQPFLMAIPRNNTEDKLYNLLLLRMCRYVKMSTETEETDGHLRCCEDQNINGNGPNGLHEEGSPSEMETDEPDDESSQDQELPSENENSQSEDSVGGDNDSENGLCTEETCKGQLTGHKKRLFTFQFNNLGNNDINYIKDDTSHIRFDDRQLRLDERSFLALDWDPDLKKRYFDENAAEDFEKHESVEYKPPKRPFVKLKDCIELFTTKEKLGAEDPWYCPNCKEHQQATKKLDLWSLPPVLVVHLKRFSYSRYMRDKLDTLVDFPISDLDMSEFLINPNAGPCRYNLIAVSNHYGGMGGGHYTAFAKNKDDGKWYYFDDSSVSTASEDQIVSKAAYVLFYQRQDTFSGTGFFPLDRETKGASAATGIPLESDEDSNDNDNDLENENCMHTN
As to B1, the binding result in test [1] and in test [2] was “binds” throughout.

B2: Myc-p66Shc (protein, UniProt P29353-1 1-583)
chain: MDLLPPKPKYNPLRNESLSSLEEGASGSTPPEELPSPSASSLGPILPPLPGDDSPTTLCSFFPRMSNLRLANPAGGRPGSKGEPGRAADDGEGIVGAAMPDSGPLPLLQDMNKLSGGGGRRTRVEGGQLGGEEWTRHGSFVNKPTRGWLHPNDKVMGPGVSYLVRYMGCVEVLQSMRALDFNTRTQVTREAISLVCEAVPGAKGATRRRKPCSRPLSSILGRSNLKFAGMPITLTVSTSSLNLMAADCKQIIANHHMQSISFASGGDPDTAEYVAYVAKDPVNQRACHILECPEGLAQDVISTIGQAFELRFKQYLRNPPKLVTPHDRMAGFDGSAWDEEEEEPPDHQYYNDFPGKEPPLGGVVDMRLREGAAPGAARPTAPNAQTPSHLGATLPVGQPVGGDPEVRKQMPPPPPCPGRELFDDPSYVNVQNLDKARQAVGGAGPPNPAINGSAPRDLFDMKPFEDALRVPPPPQSVSMAEQLRGEPWFHGKLSRREAEALLQLNGDFLVRESTTTPGQYVLTGLQSGQPKHLLLVDPEGVVRTKDHRFESVSHLISYHMDNHLPIISAGSELCLQQPVERKL
In the case of B2, the binding result in test [3] and in test [4] was “binds” in each case.
